Values of other authors in patent US20240122878A1 (priority 2021, published 2024).

Target: N-methyl-D-aspartate receptors (NMDARs), MK-801 site
Conditions: cited from earlier work

Question: Which “IC50 at MK-801 site of NMDAR” value does the source give for `CCC(=O)C(C[C@H](C)N(C)C)(c1ccccc1)c1ccccc1` [esmethadone] here?
Answer: low-micromolar
